Assay [1] addresses Flag-FTO C-terminal fragment (FTO-C) (mouse). As to the kind of experiment: co-IP; HEK293T transfected with Flag-Fto constructs for 48 h (with HA-K48 and Myc-Ogt WT or K908A in Figure 6I); IP with anti-Flag; immunoblot for OGT or TRIM21 for which the legend names no plasmid.
Assay [2] addresses Flag-FTO N-terminal fragment (FTO-N) (mouse). Described as above.

These are yes or no findings as the source states them, for the method shown. In cells and extracts the contact can be indirect. For some assays here: Binding calls can cover weak binding; strength is not graded here. Where a sequence is shown, tags or fusion partners need not be part of it.

B1: OGT detected with anti-OGT in HEK293T cells transfected with Flag-Fto constructs only (enzyme, UniProt O15294 1-1046)
chain: MASSVGNVADSTEPTKRMLSFQGLAELAHREYQAGDFEAAERHCMQLWRQEPDNTGVLLLLSSIHFQCRRLDRSAHFSTLAIKQNPLLAEAYSNLGNVYKERGQLQEAIEHYRHALRLKPDFIDGYINLAAALVAAGDMEGAVQAYVSALQYNPDLYCVRSDLGNLLKALGRLEEAKACYLKAIETQPNFAVAWSNLGCVFNAQGEIWLAIHHFEKAVTLDPNFLDAYINLGNVLKEARIFDRAVAAYLRALSLSPNHAVVHGNLACVYYEQGLIDLAIDTYRRAIELQPHFPDAYCNLANALKEKGSVAEAEDCYNTALRLCPTHADSLNNLANIKREQGNIEEAVRLYRKALEVFPEFAAAHSNLASVLQQQGKLQEALMHYKEAIRISPTFADAYSNMGNTLKEMQDVQGALQCYTRAIQINPAFADAHSNLASIHKDSGNIPEAIASYRTALKLKPDFPDAYCNLAHCLQIVCDWTDYDERMKKLVSIVADQLEKNRLPSVHPHHSMLYPLSHGFRKAIAERHGNLCLDKINVLHKPPYEHPKDLKLSDGRLRVGYVSSDFGNHPTSHLMQSIPGMHNPDKFEVFCYALSPDDGTNFRVKVMAEANHFIDLSQIPCNGKAADRIHQDGIHILVNMNGYTKGARNELFALRPAPIQAMWLGYPGTSGALFMDYIITDQETSPAEVAEQYSEKLAYMPHTFFIGDHANMFPHLKKKAVIDFKSNGHIYDNRIVLNGIDLKAFLDSLPDVKIVKMKCPDGGDNADSSNTALNMPVIPMNTIAEAVIEMINRGQIQITINGFSISNGLATTQINNKAATGEEVPRTIIVTTRSQYGLPEDAIVYCNFNQLYKIDPSTLQMWANILKRVPNSVLWLLRFPAVGEPNIQQYAQNMGLPQNRIIFSPVAPKEEHVRRGQLADVCLDTPLCNGHTTGMDVLWAGTPMVTMPGETLASRVAASQLTCLGCLELIAKNRQEYEDIAVKLGTDLEYLKKVRGKVWKQRISSPLFNTKQYTMELERLYLQMWEHYAAGNKPDHMIKPVEVTESA
B1: the figures for the binding result in assay [1] and in assay [2] were “no binding” and “binds”, respectively.

The values above are taken from paper PMC12240770.
